Source: article PMC7666139
Results are given in words; binding and its absence hold for the method and conditions named.

By UniProt entry, the sequences of proteins in these tests, tags left out. Residues count along the entry.
UniProt Q9NSI8, residues 163-224: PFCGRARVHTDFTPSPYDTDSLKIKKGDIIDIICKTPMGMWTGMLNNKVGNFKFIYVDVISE

Experiments:
[1] = biological target: 6xHis-tagged HACS1 SH3 domain (human) (UniProt Q9NSI8); test: SEC-MALS; 0.2 mM (2.0 mg/mL) reduced 6xHis-tagged SH3 domain; 5 mM Tris, 60 mM NaCl, 2.5 mM TCEP pH 7.7; AdvanceBio SEC300A column; both purified
[2] = biological target: 6xHis-tagged HACS1 SH3 domain (human) (UniProt Q9NSI8); test: NMR 15N relaxation (rotational correlation time); 0.3 mM reduced 15N-labeled 6xHis-tagged HACS1 SH3 domain, NMR buffer with 2.5 mM TCEP, 700 MHz; global fit of T1, T2 and heteronuclear NOE; both purified

“6xHis-tagged HACS1 SH3 domain (from UniProt Q9NSI8 163-224) (domain or fragment)” was tested, and the binding [1] was “no binding (tested: 0.2 mM)” and the binding [2] was “no binding (tested: 0.3 mM)”.
